# Results published in PubChem BioAssay (NCATS).
# Inconclusive results, whose numbers are uncertain, are shown with a selection of clear calls. Potencies beside an inconclusive call are fits to weak or partial responses and may not hold up. Activity calls are given as the source filed them. Calls come from the whole dose curve; as a rule, active = well fitted cell-killing curve with a large enough effect; inconclusive = small, poorly fitted or top-dose-only effect, or effect the other way; inactive = no such curve, though single readings can be large or run the other way.
# Test: Quantitative High-Throughput drug screen in 47 multiple myeloma cell lines against the NCATS MIPE library collection: PCM6_Riken cell viability assay (AID 1919870); note: nearly all actives have a fitted effect of over 30% in size
# Conditions: CellTiter-Glo ATP, 48 h; series mostly up to 45.8 µM
# Description: PI: Beverly A. Mock Ph.D.
# Laboratory of Cancer Biology and Genetics,
# Center for Cancer Research, National Cancer Institute,
# National Institute of Health, Bethesda, Maryland
# Drug resistance and disease progression are common in multiple myeloma (MM) patients, underscoring the need for new therapeutic combinations. […] We hypothesized that effective combinations would reduce MYC expression and enhance p16 activity. […] These preclinical data identify potentially useful drug combinations for evaluation in drug-resistant MM and reveal potential mechanisms of combined drug sensitivity.
# Described herein is the primary MIPE qHTS used to cherrypick compounds. Validated compounds were then further tested for potential synergistic activiy.
# [1] Peat TJ, Gaikwad SM, Dubois W, Gyabaah-Kessie N, Zhang S, Gorjifard S, Phyo Z, Andres M, Hughitt VK, Simpson RM, Miller MA, Girvin AT, Taylor A, Williams D, D'Antonio N, Zhang Y, Rajagopalan A, Flietner E, Wilson K, Zhang X, Shinn P, Klumpp-Thomas C, McKnight C, Itkin Z, Chen L, Kazandijian D, Zhang J, Michalowski AM, Simmons JK, Keats J, Thomas CJ, Mock BA. Drug combinations identified by high-throughput screening promote cell cycle transition and upregulate Smad pathways in myeloma. Cancer Lett. 2023 Aug 1;568:216284. doi: 10.1016/j.canlet.2023.216284. Epub 2023 Jun 24. PMID: 37356470; PMCID: PMC10408729.
# SEQUENCE No. (e.g., 1, 2, 3, etc.); […] (e.g., Cells, Incubation, Reagent, etc.); VALUE and DESCRIPTION.
# 1; Cells; 5 uL; white, solid bottom 1536-well Greiner assay plate.
# 2; Compounds; 23 nL; Kalypsis pin tool (Wako USA) equipped with a 1536-well pin head to transfer to the assay plates.
# 3; Incubation; 48 hours; 37C incubation.
# 4; Reagent;5uL; CellTiter Glo (Promega).
# 5; Detector; 425V; Luminescence; Viewlux PerkinElmer.
# NOTES (numbers refer to Sequence numbers above)
# 1. The cell-based screening methods employed in this study were like those previously published. Briefly, the corresponding myeloma cell lines were screened in 1,536-well plates with 500 cells, 5-uL per well for inhibition of cell viability (assessed by measuring ATP levels with CellTiterGlo).
# 2. NCATS MIPE 4.0 library of approved and investigational drugs were added using the Kalypsis pin tool. Wells treated with DMSO only for 100% viability and media only for 0% viability were used as controls.
# 3. The assay plates were covered and incubated for 48 hours in a 37C, 5% CO2 incubator with controlled humidity.
# 4. After 48 hours, CellTilter-GloTM luminescent substrate mix (Promega) reagent was added to the assay plate and plates we incubated for 5 min at room temperature.
# 5. Signal was measured as median relative luminescence units on a ViewLux (PerkinElmer) multiplate reader.
# [1] Heske CM, Davis MI, Baumgart JT, Wilson K, Gormally MV, Chen L, Zhang X, Ceribelli M, Duveau DY, Guha R, Ferrer M, Arnaldez FI, Ji J, Tran HL, Zhang Y, Mendoza A, Helman LJ, Thomas CJ. Matrix Screen Identifies Synergistic Combination of PARP Inhibitors and Nicotinamide Phosphoribosyltransferase (NAMPT) Inhibitors in Ewing Sarcoma. Clin Cancer Res. 2017 Dec 1;23(23):7301-7311. doi: 10.1158/1078-0432.CCR-17-1121. Epub 2017 Sep 12. PMID: 28899971; PMCID: PMC6636827.
# Potency is the fitted concentration of half-maximal effect.
row,SMILES,Potency
1,CNC1[C@H](O)C(O[C@@H]2C(O)C(O[C@H]3O[C@H]([C@@H](C)NC)CC[C@H]3N)[C@@H](N)C[C@H]2N)OC[C@]1(C)O (stereo not given in full),inactive
2,N[C@H](CSC(c1ccccc1)(c1ccccc1)c1ccccc1)C(=O)O,"inconclusive: 23.5 µM [cytotoxic, partial curve, poor fit]"
3,CC1=C(CO)C(=O)O[C@@H]([C@@H](C)[C@H]2CC[C@H]3[C@@H]4C[C@H]5O[C@]56[C@@H](O)C=CC(=O)[C@]6(C)[C@@H]4CC[C@]23C)C1,active: 0.166 µM
4,CCn1cc(C(=O)O)c(=O)c2cc(F)c(N3CCNC(C)C3)c(F)c21 (stereo not given),inactive
5,O=C(Nc1ccc(F)c(C(F)(F)F)c1)Nc1nnc(-c2ccncc2)s1,active: 1.87 µM
6,CCN1CCC(n2cc(CNc3cc(Cl)c4ncc(C#N)c(Nc5ccc(F)c(Cl)c5)c4c3)nn2)CC1,active: 20.9 µM
7,Cc1ccc(C(=O)Nc2ccc(S(=O)(=O)O)c3cc(S(=O)(=O)O)cc(S(=O)(=O)O)c23)cc1NC(=O)c1cccc(NC(=O)Nc2cccc(C(=O)Nc3cc(C(=O)Nc4ccc(S(=O)(=O)O)c5cc(S(=O)(=O)O)cc(S(=O)(=O)O)c45)ccc3C)c2)c1,"inconclusive: 11.8 µM [cytotoxic, partial curve, poor fit]"
8,Oc1ccc(C2=Cc3ccc(O)cc3OC2)cc1,"inconclusive: 1.18 µM [cytotoxic, full curve]"
9,O=C(NNC(=O)c1ccc(CNS(=O)(=O)c2ccc(F)c(Cl)c2)cc1)c1ccccc1,inactive
10,CS(=O)(=O)N(Cc1ccco1)CC(O)Cn1c2ccccc2c2ccccc21 (stereo not given),"inconclusive: 20.9 µM [cytotoxic, single point]"
11,COc1ccnc(CS(=O)c2nc3ccc(OC(F)F)cc3[nH]2)c1OC (stereo not given),"inconclusive: 10.5 µM [cytotoxic, partial curve, poor fit]"
12,CC(C)(C)COc1ccc(-n2cc(C(=O)O)cn2)cc1C#N,inactive
13,O=c1cc(N2CCOCC2)oc2c(-c3ccccc3)cccc12,"inconclusive: 18.7 µM [cytotoxic, partial curve, poor fit]"
14,O=c1c(O)c(-c2ccc(O)cc2)oc2cc(O)cc(O)c12,active: 18.7 µM
15,O=C(C=CC=Cc1ccc2c(c1)OCO2)N1CCCCC1,inactive
16,CCCCCN=C(N)NN=Cc1c[nH]c2ccc(OC)cc12,"inconclusive: 8.33 µM [cytotoxic, partial curve]"
17,O=C1CCCC2=C1C(c1[nH]ncc1Cl)N=C(Nc1nc3ccccc3o1)N2 (stereo not given),"inconclusive: 23.5 µM [cytotoxic, partial curve, poor fit]"
18,Nc1ccc(-c2ccc3ncc4ccc(=O)n(-c5cccc(C(F)(F)F)c5)c4c3c2)cn1,"inconclusive: 0.0209 µM [cytotoxic, full curve]"
19,CCCCCNC(=O)N1CCC(CN(Cc2ccc(Cl)cc2)Cc2ccc([N+](=O)[O-])s2)C1 (stereo not given),"inconclusive: 29.6 µM [cytotoxic, single point]"
20,CCOC1OC(=O)C[C@H]1NC(=O)[C@@H]1CCCN1C(=O)[C@@H](NC(=O)c1ccc(N)c(Cl)c1)C(C)(C)C (stereo not given in full),inactive

row,SMILES,Potency
1,O=c1c(-c2ccc(O)cc2)coc2cc(O[C@@H]3O[C@H](CO)[C@H](O)[C@H](O)[C@H]3O)ccc12,inactive
2,N#CC(=C(N)Sc1ccccc1N)C(C#N)=C(N)Sc1ccccc1N,"inconclusive: 10.5 µM [cytotoxic, partial curve]"
3,Cc1c(NC(=O)c2ccc(C(C)(C)C)cc2)cccc1-c1cn(C)c(=O)c(Nc2ccc(C(=O)N3CCOCC3)cc2)n1,"inconclusive: 10.5 µM [cytotoxic, partial curve, poor fit]"
4,N#CC1(c2ccc(NC(=O)c3cccnc3NCc3ccncc3)cc2)CCCC1,"inconclusive: 10.5 µM [cytotoxic, partial curve, poor fit]"
5,N#Cc1ccc(NC(=O)Nc2ccccc2Br)c2n[nH]nc12,"inconclusive: 14.8 µM [cytotoxic, partial curve]"
6,C=CC(=O)Nc1cccc(Sc2nc(Nc3ccc(N4CCN(C)CC4)cc3)ncc2Cl)c1,"inconclusive: 1.66 µM [cytotoxic, full curve, poor fit]"
7,COc1cc(Nc2ncc(F)c(Nc3ccc4c(n3)NC(=O)C(C)(C)O4)n2)cc(OC)c1OC,"inconclusive: 5.9 µM [cytotoxic, partial curve]"
8,C[C@H](NC(=O)[C@@H](O)c1cc(F)cc(F)c1)C(=O)N[C@@H]1C(=O)N(C)c2ccccc2-c2ccccc21,inactive
9,COc1ccc(-c2coc3cc(O)ccc3c2=O)cc1,inactive
10,CC=CC[C@@H](C)C(=O)[C@H]1C(=O)N[C@@H](C(C)C)C(=O)N(C)CC(=O)N(C)[C@@H](CC(C)C)C(=O)N[C@@H](C(C)C)C(=O)N(C)[C@@H](CC(C)C)C(=O)N[C@@H](C)C(=O)N[C@H](C)C(=O)N(C)[C@@H](CC(C)C)C(=O)N(C)[C@@H](CC(C)C)C(=O)N(C)[C@@H](C(C)C)C(=O)N1C,"inconclusive: 18.7 µM [cytotoxic, partial curve, poor fit]"
11,CC(C)Cc1ccc(C(C)C(=O)O)cc1 (stereo not given),"inconclusive: 1.02 µM [cytotoxic, partial curve, poor fit]"
12,Clc1ccc2nsnc2c1NC1=NCCN1,inactive
13,C[C@H](NC(=O)C(=O)Nc1ccccc1C(C)(C)C)C(=O)N[C@@H](CC(=O)O)C(=O)COc1c(F)c(F)cc(F)c1F,"inconclusive: 20.9 µM [cytotoxic, partial curve]"
14,CN(C)c1cc(NC(=O)CNC(C)(C)C)c(O)c2c1C[C@@H]1C[C@H]3[C@H](N(C)C)C(=O)C(C(N)=O)=C(O)[C@@]3(O)C(=O)C1=C2O,inactive
15,COCCCN1CCC(NC(=O)c2cc(Cl)c(N)c3c2OCC3)CC1,"inconclusive: 29.6 µM [cytotoxic, single point]"
16,Nc1ncnc2c1ncn2[C@@H]1O[C@@H](CO)[C@H](O)[C@H]1O,"inconclusive: 9.35 µM [cytotoxic, partial curve, poor fit]"
17,Cc1cccc(Nc2nc(-c3ccncc3)cs2)c1,"inconclusive: 20.9 µM [cytotoxic, partial curve]"
18,Cc1cc(C(C)(C)C)c(O)c(C)c1CC1=NCCN1,inactive
19,N=c1ccn2c(n1)O[C@H]1[C@@H](O)[C@@H](CO)O[C@H]12,"inconclusive: 14.8 µM [cytotoxic, partial curve]"
20,O=C1C[C@@H](c2ccc(O)cc2)Oc2cc(O)cc(O)c21,inactive

# In the list so far, two contain two or more sulfur atoms:
row,SMILES,Potency
7,Cc1ccc(C(=O)Nc2ccc(S(=O)(=O)O)c3cc(S(=O)(=O)O)cc(S(=O)(=O)O)c23)cc1NC(=O)c1cccc(NC(=O)Nc2cccc(C(=O)Nc3cc(C(=O)Nc4ccc(S(=O)(=O)O)c5cc(S(=O)(=O)O)cc(S(=O)(=O)O)c45)ccc3C)c2)c1,"inconclusive: 11.8 µM [cytotoxic, partial curve, poor fit]"
2,N#CC(=C(N)Sc1ccccc1N)C(C#N)=C(N)Sc1ccccc1N,"inconclusive: 10.5 µM [cytotoxic, partial curve]"
